Protein sequences, listed by entry. Tags and fused reporters are not part of them. Lines headed by an entry give the natural chain unless they say otherwise; changes in a name come on top.
UniProt Q8NFD5: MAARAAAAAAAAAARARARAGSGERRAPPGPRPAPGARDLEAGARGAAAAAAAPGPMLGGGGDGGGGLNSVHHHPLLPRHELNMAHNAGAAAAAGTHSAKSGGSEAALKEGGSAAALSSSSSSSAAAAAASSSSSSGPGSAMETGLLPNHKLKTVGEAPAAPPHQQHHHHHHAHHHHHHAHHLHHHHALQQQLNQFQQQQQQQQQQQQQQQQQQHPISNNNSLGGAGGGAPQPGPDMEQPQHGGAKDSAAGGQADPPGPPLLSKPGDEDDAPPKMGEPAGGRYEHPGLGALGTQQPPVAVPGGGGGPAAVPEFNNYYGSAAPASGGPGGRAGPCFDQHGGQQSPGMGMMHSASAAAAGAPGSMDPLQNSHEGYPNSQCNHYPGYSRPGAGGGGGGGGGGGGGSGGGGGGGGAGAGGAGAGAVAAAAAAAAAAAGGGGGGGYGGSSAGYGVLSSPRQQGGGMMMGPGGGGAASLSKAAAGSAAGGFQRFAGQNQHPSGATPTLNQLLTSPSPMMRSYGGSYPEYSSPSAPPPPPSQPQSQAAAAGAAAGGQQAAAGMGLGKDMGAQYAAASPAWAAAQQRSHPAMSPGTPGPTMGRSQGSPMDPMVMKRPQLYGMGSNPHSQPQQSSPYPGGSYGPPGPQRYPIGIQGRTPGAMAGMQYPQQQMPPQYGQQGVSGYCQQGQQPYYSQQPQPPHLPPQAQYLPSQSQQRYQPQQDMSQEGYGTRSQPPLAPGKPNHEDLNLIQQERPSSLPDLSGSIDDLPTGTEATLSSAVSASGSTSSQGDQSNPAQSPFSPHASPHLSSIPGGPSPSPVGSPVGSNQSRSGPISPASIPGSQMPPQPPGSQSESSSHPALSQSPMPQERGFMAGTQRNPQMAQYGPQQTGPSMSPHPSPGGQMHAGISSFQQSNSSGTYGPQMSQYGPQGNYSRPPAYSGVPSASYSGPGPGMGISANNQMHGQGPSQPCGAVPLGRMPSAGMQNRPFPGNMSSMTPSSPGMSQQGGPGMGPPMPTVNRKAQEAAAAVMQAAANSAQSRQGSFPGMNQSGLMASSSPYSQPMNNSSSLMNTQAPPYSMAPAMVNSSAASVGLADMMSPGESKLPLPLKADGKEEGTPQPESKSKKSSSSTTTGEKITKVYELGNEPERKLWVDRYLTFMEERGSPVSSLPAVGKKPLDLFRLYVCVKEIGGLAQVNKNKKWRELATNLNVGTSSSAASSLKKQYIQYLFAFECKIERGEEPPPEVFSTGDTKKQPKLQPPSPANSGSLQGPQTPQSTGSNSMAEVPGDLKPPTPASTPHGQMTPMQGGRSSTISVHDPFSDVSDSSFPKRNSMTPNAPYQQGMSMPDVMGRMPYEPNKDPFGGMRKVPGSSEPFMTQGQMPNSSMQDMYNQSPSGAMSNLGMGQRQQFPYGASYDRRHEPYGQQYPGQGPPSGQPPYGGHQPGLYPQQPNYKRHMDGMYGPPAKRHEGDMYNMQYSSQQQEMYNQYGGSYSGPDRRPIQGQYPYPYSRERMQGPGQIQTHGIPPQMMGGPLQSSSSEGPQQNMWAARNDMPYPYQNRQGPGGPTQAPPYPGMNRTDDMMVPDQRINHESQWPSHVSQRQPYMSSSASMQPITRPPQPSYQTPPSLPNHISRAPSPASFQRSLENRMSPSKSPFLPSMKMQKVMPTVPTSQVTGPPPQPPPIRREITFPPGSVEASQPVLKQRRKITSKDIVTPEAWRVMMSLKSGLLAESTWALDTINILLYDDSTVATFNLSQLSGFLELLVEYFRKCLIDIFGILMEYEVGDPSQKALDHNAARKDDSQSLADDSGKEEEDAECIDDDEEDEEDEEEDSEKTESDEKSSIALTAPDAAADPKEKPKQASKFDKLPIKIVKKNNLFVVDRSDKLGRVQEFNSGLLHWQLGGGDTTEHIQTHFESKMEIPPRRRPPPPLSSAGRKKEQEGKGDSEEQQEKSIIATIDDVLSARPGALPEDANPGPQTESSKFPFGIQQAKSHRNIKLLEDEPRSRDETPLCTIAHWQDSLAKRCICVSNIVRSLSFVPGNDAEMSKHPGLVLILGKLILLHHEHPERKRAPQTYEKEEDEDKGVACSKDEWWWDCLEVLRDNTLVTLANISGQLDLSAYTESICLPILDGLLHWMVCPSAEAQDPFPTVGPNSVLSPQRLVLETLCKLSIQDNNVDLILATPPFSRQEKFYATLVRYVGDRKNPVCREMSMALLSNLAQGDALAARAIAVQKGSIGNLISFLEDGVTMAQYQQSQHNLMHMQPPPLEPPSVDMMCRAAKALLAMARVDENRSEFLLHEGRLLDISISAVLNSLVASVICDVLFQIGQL
UniProt P78527: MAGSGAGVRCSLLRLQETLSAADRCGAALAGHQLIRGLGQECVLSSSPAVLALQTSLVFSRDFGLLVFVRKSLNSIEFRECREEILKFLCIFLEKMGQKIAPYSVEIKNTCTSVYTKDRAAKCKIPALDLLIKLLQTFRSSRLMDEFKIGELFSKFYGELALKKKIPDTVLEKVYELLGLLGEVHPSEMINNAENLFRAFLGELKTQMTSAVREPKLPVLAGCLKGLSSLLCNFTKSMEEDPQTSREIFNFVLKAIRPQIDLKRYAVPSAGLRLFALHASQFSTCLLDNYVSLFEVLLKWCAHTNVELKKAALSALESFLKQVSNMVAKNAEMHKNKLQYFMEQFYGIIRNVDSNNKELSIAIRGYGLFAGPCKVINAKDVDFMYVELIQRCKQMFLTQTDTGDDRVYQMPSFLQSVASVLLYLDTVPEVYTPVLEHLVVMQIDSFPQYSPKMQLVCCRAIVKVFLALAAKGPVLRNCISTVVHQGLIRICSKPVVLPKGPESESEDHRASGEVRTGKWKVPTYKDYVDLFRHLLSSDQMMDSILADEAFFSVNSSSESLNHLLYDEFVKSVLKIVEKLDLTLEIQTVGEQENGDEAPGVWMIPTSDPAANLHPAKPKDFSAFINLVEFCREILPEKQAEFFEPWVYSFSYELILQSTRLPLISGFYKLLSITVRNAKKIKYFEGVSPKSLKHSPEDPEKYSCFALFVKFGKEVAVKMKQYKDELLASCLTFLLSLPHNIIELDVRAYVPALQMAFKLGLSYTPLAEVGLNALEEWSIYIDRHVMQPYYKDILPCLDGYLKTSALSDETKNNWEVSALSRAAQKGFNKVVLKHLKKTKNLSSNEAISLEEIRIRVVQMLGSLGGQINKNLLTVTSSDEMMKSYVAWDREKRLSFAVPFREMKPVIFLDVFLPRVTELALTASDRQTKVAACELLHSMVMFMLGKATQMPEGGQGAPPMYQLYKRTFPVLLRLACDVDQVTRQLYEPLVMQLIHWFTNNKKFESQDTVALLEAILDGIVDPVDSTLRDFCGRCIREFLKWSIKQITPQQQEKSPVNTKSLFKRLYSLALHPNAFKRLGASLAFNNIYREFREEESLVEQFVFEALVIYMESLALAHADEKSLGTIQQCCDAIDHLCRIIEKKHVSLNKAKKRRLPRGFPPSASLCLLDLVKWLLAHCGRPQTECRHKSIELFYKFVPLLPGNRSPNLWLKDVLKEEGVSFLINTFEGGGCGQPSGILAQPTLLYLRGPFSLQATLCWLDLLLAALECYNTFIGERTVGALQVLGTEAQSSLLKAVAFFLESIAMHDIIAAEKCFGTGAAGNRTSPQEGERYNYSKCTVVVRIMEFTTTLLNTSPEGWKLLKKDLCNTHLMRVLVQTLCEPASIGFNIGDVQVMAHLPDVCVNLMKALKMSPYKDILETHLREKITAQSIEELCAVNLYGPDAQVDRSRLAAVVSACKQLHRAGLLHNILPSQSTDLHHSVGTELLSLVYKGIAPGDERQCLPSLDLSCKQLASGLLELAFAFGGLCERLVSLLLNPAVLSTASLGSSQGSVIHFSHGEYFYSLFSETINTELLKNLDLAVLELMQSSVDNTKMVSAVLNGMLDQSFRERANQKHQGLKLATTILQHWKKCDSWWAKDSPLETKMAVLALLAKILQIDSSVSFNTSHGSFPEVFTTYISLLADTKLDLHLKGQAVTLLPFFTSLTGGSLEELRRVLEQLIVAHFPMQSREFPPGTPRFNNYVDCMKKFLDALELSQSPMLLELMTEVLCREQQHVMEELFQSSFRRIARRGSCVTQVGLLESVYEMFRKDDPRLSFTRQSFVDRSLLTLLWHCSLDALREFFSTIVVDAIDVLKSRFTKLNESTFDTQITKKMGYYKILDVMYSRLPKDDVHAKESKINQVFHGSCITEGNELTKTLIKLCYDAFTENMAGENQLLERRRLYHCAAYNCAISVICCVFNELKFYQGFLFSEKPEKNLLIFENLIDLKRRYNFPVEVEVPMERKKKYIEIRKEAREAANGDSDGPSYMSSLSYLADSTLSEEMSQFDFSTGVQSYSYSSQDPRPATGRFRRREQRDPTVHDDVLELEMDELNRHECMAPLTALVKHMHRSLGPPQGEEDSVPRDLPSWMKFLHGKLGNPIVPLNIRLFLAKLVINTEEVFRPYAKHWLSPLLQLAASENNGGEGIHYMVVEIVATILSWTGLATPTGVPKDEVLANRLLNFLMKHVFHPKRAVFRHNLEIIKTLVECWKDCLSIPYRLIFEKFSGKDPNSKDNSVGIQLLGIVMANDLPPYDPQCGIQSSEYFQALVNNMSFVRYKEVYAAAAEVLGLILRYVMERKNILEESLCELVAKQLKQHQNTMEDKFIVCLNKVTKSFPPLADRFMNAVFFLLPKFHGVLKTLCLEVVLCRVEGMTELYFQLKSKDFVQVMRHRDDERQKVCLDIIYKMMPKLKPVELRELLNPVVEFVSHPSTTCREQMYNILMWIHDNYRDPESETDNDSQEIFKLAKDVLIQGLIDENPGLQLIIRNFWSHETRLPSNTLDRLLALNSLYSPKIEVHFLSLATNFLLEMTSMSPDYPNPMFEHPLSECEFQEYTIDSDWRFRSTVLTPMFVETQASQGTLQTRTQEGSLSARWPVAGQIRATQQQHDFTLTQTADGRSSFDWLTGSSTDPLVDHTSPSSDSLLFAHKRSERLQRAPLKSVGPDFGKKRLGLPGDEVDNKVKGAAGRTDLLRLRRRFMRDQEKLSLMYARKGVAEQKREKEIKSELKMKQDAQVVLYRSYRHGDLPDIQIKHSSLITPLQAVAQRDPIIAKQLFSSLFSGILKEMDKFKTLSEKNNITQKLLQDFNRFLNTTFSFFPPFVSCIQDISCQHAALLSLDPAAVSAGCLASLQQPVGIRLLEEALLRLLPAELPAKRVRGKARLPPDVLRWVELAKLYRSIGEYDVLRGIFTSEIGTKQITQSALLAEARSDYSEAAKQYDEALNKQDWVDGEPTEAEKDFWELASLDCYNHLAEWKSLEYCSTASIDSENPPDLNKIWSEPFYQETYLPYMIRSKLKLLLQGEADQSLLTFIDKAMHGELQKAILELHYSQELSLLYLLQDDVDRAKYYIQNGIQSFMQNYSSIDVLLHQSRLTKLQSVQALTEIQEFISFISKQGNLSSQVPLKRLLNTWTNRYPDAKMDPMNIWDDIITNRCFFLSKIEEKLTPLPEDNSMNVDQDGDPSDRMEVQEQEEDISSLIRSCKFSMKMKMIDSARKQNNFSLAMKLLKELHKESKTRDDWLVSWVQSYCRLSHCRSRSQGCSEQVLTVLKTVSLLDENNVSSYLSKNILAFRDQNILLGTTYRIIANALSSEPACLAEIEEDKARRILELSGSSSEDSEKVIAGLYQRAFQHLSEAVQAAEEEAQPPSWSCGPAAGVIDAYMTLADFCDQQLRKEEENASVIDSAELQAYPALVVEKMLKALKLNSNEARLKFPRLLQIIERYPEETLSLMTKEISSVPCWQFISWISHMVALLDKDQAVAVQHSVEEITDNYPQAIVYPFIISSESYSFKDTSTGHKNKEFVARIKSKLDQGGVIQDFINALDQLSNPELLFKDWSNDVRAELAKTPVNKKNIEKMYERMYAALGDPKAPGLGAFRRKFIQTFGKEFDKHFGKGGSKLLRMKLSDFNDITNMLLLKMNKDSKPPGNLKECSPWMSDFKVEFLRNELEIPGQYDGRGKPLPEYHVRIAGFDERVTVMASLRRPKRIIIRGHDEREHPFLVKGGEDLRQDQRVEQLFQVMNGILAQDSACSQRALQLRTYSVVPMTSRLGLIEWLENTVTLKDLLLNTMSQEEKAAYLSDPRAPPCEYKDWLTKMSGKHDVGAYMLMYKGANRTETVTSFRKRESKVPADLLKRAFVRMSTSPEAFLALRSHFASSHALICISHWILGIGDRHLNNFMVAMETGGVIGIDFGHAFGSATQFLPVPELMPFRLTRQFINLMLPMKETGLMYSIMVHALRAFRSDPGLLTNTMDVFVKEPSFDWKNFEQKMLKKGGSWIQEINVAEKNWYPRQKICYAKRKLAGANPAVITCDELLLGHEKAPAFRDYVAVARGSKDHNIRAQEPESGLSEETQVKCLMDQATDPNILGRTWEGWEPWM

In article PMC11904782:

Target: GST–ARID1B–ARM: ARM domain of ARID1B (aa 1861–2236) (UniProt Q8NFD5)
Assay: pull-down; GST–ARID1A mutants or GST–ARID1B–ARM on Glutathione Sepharose beads incubated with HEK293 (methods: 293T) nuclear extract for 4 h at 4°C with RNase A and DNase I; bound proteins by immunoblot; only the target purified

binding: binds
Substance: DNA-dependent protein kinase catalytic subunit (DNA-PKcs), endogenous wild type (from UniProt P78527 1-4128)

These are yes or no findings as the source states them, for the method shown. Binding seen in cells or lysates may run through a third protein. Binding calls can cover weak binding; strength is not graded here.
